This note sets out measurements from paper PMC5386534.

Amino acid sequences for entries named in this document (tags omitted).
UniProt P10415: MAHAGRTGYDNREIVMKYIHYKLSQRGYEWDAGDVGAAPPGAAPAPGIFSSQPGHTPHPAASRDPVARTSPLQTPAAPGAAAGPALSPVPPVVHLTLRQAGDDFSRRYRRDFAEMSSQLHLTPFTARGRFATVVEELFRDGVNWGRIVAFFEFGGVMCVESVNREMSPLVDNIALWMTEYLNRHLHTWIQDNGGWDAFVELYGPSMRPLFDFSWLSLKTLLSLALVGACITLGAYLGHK
UniProt O00327: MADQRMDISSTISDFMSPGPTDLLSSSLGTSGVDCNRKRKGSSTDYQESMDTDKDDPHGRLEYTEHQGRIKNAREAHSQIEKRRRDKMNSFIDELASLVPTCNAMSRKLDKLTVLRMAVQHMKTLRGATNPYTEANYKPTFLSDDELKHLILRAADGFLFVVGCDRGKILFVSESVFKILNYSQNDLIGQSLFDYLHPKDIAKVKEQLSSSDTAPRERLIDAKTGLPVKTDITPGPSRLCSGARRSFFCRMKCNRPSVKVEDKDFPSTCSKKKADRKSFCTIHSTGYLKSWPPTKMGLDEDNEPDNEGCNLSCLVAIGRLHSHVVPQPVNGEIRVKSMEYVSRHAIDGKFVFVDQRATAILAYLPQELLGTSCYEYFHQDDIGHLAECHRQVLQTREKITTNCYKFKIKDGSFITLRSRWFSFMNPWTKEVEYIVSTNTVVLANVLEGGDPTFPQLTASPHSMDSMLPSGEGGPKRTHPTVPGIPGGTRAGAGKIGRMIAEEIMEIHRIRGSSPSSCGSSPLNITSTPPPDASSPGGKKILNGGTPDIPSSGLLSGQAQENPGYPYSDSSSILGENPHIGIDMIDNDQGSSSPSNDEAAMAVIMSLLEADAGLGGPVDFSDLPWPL

These are yes or no findings as the source states them, for the method shown. In cells and extracts the contact can be indirect. Some results given as binding are weak or reduced against the parent protein; the word gives no strength.

Test [1] concerns the target T1, Neuronal PAS domain protein 2 (NPAS2) (human (endogenous in HLE)) (UniProt Q99743).
T1 sequence: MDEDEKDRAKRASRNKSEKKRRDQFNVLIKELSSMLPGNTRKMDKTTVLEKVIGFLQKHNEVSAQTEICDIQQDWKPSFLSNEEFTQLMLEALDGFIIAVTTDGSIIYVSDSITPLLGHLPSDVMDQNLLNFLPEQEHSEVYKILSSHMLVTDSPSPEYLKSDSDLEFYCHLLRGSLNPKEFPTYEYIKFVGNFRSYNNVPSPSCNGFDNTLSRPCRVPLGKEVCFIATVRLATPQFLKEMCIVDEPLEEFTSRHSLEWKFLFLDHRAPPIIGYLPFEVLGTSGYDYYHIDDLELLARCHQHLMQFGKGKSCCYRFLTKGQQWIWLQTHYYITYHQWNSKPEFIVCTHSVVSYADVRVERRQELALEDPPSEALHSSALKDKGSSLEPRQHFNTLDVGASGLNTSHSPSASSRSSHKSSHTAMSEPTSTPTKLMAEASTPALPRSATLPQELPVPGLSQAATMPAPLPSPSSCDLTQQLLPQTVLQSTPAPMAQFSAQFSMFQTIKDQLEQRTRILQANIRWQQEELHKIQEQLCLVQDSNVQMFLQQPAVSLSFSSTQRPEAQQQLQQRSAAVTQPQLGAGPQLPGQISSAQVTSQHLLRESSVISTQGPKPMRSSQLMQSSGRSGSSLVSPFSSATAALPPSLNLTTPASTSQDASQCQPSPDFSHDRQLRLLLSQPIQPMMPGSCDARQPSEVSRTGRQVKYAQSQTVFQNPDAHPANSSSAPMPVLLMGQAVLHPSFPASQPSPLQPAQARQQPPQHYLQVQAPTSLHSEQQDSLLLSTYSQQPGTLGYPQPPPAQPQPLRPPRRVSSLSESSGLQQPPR
The test can be described thus: co-IP; IP with anti-NPAS2 or anti-BMAL1 antibody from extracts of HLE cells (HCC cells); immunoblot for BMAL1 or NPAS2. (A western blot detects proteins with antibodies after separation by electrophoresis.)

For test [2], the target named is T2, CDC25A (human (endogenous in HLE and HLF)) (UniProt P30304).
T2 sequence: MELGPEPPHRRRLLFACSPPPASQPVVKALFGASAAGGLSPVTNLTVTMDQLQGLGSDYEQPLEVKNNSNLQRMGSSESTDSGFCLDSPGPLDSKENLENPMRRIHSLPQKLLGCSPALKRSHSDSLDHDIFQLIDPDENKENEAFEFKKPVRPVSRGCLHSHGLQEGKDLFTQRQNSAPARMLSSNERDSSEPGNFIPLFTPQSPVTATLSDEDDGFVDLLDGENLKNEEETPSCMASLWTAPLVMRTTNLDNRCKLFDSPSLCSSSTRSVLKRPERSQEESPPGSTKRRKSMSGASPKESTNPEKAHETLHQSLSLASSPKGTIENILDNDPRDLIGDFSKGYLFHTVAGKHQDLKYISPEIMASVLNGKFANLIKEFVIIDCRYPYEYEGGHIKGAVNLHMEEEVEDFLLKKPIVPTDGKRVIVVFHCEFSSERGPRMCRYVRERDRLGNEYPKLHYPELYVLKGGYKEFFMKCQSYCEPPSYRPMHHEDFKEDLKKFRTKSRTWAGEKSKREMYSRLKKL
The test can be described thus: co-IP; IP with anti-CDC25A or anti-Bcl-2 antibody (control IgG) from extracts of HLE and HLF cells; immunoblot for Bcl-2 or CDC25A.

Test [3] deals with Bcl-2 (human (endogenous in HLE and HLF)) (UniProt P10415). The description is as above.

Regarding BMAL1 (from UniProt O00327 1-626), in test [1], the binding result was “binds”.
For the molecule Bcl-2 (from UniProt P10415 1-239), the binding entry in test [2] is listed as “binds”.

B1: CDC25A (enzyme, UniProt P30304 1-524)
chain: MELGPEPPHRRRLLFACSPPPASQPVVKALFGASAAGGLSPVTNLTVTMDQLQGLGSDYEQPLEVKNNSNLQRMGSSESTDSGFCLDSPGPLDSKENLENPMRRIHSLPQKLLGCSPALKRSHSDSLDHDIFQLIDPDENKENEAFEFKKPVRPVSRGCLHSHGLQEGKDLFTQRQNSAPARMLSSNERDSSEPGNFIPLFTPQSPVTATLSDEDDGFVDLLDGENLKNEEETPSCMASLWTAPLVMRTTNLDNRCKLFDSPSLCSSSTRSVLKRPERSQEESPPGSTKRRKSMSGASPKESTNPEKAHETLHQSLSLASSPKGTIENILDNDPRDLIGDFSKGYLFHTVAGKHQDLKYISPEIMASVLNGKFANLIKEFVIIDCRYPYEYEGGHIKGAVNLHMEEEVEDFLLKKPIVPTDGKRVIVVFHCEFSSERGPRMCRYVRERDRLGNEYPKLHYPELYVLKGGYKEFFMKCQSYCEPPSYRPMHHEDFKEDLKKFRTKSRTWAGEKSKREMYSRLKKL
Take B1: the binding entry in test [3] is “binds”.
